Source: publication PMC7819943, “Rice protein-binding microarrays: a tool to detect cis-acting elements near promoter regions in rice”
The other results are listed elsewhere or left out.

Amino acid sequences for entries named in this document (tags omitted).
UniProt Q0JBA9, entry or part of it: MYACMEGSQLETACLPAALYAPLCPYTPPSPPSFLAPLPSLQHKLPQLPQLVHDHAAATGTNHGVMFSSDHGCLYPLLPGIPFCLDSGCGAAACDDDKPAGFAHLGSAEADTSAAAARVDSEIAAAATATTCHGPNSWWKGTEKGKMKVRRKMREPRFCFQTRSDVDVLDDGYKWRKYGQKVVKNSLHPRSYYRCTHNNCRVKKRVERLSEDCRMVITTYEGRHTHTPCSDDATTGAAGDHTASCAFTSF

Biological target: OsWRKY34 (Oryza sativa, UniProt Q0JBA9 1-250)
Assay: protein-binding microarray (RPBM); PBS, 2% BSA, 51.3 ng/ul salmon testes DNA, 50 uM zinc acetate, 200 nM TF, 25 C, 1 h; high values mean tight binding
Settings: protein: recombinant; tags: N-terminal polyhistidine and DsRed monomer fusion (pET32a); label: CyDye5-dUTP incorporated in the synthesized complementary strand; 3' TTTTT single-stranded linker to array surface; dsDNA, one strand shown
In short: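 Ni–NTA purification followed expression in E. coli BL21-CodonPlus of transcription factors fused N-terminally to a polyhistidine tag and DsRed. At 200 nM in PBS with 2% BSA, salmon testes DNA and 50 µM zinc acetate, the protein was incubated for 1 h at 25 °C with a custom Agilent array that had been primer-extended with Cy5-dUTP and blocked with 2% BSA. After washing, the array was read on an Axon 4000B scanner. The binding signal is per-feature fluorescence intensity in arbitrary units.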

Row | Sequence | binding signal
1 | TTTGTTGATTTGTTTTGGTTGGATTGATCTGTCGCTTATACGGAGTCACCTAGTGCAG | 14100 fluorescence intensity (a.u.)
2 | TTGCTCTATCTTTTTCCGTTTGGCCTTTTTTTGACGGTCACGGAGTCACCTAGTGCAG | 13500 fluorescence intensity (a.u.)
3 | AAACTTTGCATTTTCCCATCACATCAACCTGTCATACACACGGAGTCACCTAGTGCAG | 10800 fluorescence intensity (a.u.)
4 | TAGCCACAGTTTTGCTGACGTTCTCTTTTATCTGTTTGCTCGGAGTCACCTAGTGCAG | 10300 fluorescence intensity (a.u.)
5 | GGTTGAGGAACAATGCAGCGGTTAGGGTGAAATTTCGCTCCGGAGTCACCTAGTGCAG | 8500 fluorescence intensity (a.u.)
6 | CGATGTTGTGGGCTGCCTGTTGAATTGATCAAGTGCTAATCGGAGTCACCTAGTGCAG | 8180 fluorescence intensity (a.u.)
7 | CACTGCGTTTCCACACTTCCACCACCACCACCACCACGACCGGAGTCACCTAGTGCAG | 12300 fluorescence intensity (a.u.)
8 | CAACCACCTAGTCCCTGCTCACGAAGCCACGATCTTATCCCGGAGTCACCTAGTGCAG | 8640 fluorescence intensity (a.u.)
9 | GCGGTGGTGGACAGTCCCAGACTGACTTGTGGTGGGGACTCGGAGTCACCTAGTGCAG | 9560 fluorescence intensity (a.u.)
10 | CACTCTCCCCGTCGGGCCGTCCCGTGCACGTTAATCCAACCGGAGTCACCTAGTGCAG | 8650 fluorescence intensity (a.u.)
11 | GTCGTGCCATCAGTTCTGACCGCATACGCATATATATATACGGAGTCACCTAGTGCAG | 10500 fluorescence intensity (a.u.)
12 | CTCTACTAATGCTAATTTGTCTTGTCCTGAGTTAGTTGTTCGGAGTCACCTAGTGCAG | 8270 fluorescence intensity (a.u.)
13 | GACTCTTCTATTAGTACCTACACATATGGCAGTGAGACTCCGGAGTCACCTAGTGCAG | 8740 fluorescence intensity (a.u.)
14 | ACTTTAATAGGCCTCCAGTCCATCAAGGCCCATAATCTCTCGGAGTCACCTAGTGCAG | 9310 fluorescence intensity (a.u.)
15 | CCCTCTCACTTTCCTGGAATTAATACGCCCATTGTGCACACGGAGTCACCTAGTGCAG | 8180 fluorescence intensity (a.u.)
16 | ATTATTTATTTTATTTGTGACTTACTTTATTATCCAAATTCGGAGTCACCTAGTGCAG | 8050 fluorescence intensity (a.u.)
17 | GTCCCGTGCTTGTTTTTCTTTTCGCATTGTAAATAACTTTCGGAGTCACCTAGTGCAG | 10200 fluorescence intensity (a.u.)
18 | TTAAATTTGCGTGCCATATATATATGTTGATCACTGACCACGGAGTCACCTAGTGCAG | 8470 fluorescence intensity (a.u.)
19 | GTGGCGCTGTCCCGTATTCGCATATAAGGACCGATTCCTGCGGAGTCACCTAGTGCAG | 9010 fluorescence intensity (a.u.)
20 | CCGCCGCCGCTCGTCCGGGCCTCGCCTCGCCTCCGCGACCCGGAGTCACCTAGTGCAG | 8220 fluorescence intensity (a.u.)
21 | GCTGCATGTTCATCTTGTTGTCTCGCTAACGCCTATAGTCCGGAGTCACCTAGTGCAG | 8410 fluorescence intensity (a.u.)

Part of the list above, as tab-separated lines.
Row	Sequence	binding signal
9	GCGGTGGTGGACAGTCCCAGACTGACTTGTGGTGGGGACTCGGAGTCACCTAGTGCAG	9560 fluorescence intensity (a.u.)
10	CACTCTCCCCGTCGGGCCGTCCCGTGCACGTTAATCCAACCGGAGTCACCTAGTGCAG	8650 fluorescence intensity (a.u.)

The results go on:

Row | Sequence | binding signal
22 | GCTCGTATTGTTGGCTTCCATGTGATTCCTAGCAGGTATTCGGAGTCACCTAGTGCAG | 9230 fluorescence intensity (a.u.)
23 | GTGAGCCGGTCCAATATATACACGTCGTACTCCCGAGAGGCGGAGTCACCTAGTGCAG | 8690 fluorescence intensity (a.u.)
24 | CTTTCACCCGGACAACTCATGAGAAGCAATTTTCCATCTACGGAGTCACCTAGTGCAG | 8370 fluorescence intensity (a.u.)
25 | CGCCCGCCCAGAAAAGCCGCCTCGTTCCGTTGTCTCAGCGCGGAGTCACCTAGTGCAG | 8350 fluorescence intensity (a.u.)
26 | GCATTCCATAGTATATATACTTATCGTGTTTCTCTGAAGACGGAGTCACCTAGTGCAG | 8330 fluorescence intensity (a.u.)
27 | TTTTCATTTTCGTTCTTCCCTCGCTGCGGCTTTCAATTTCCGGAGTCACCTAGTGCAG | 10500 fluorescence intensity (a.u.)
28 | TCAGATCCACTTACTTCGCGCCACACCCTTCGTCTCCATCCGGAGTCACCTAGTGCAG | 10200 fluorescence intensity (a.u.)
29 | TCTCGCCACCGCCACCGCCACCTTAGCCGCGCGAGGCATTCGGAGTCACCTAGTGCAG | 11700 fluorescence intensity (a.u.)
30 | TCCTTACCTTTCTTGACATGCTCAAGGCAACAGCAAACACCGGAGTCACCTAGTGCAG | 8680 fluorescence intensity (a.u.)
31 | CATCTTTTTTTGACCTAGGTATCCCTCTAAGCCAATCACCCGGAGTCACCTAGTGCAG | 10400 fluorescence intensity (a.u.)
32 | TCTGTTTATACAATGTACATTGTGCAAATCCTTTAATCATCGGAGTCACCTAGTGCAG | 8090 fluorescence intensity (a.u.)
33 | TACCTGATTTGTGCATATGTTTCTTTCTGTTTTGCCCTTACGGAGTCACCTAGTGCAG | 8170 fluorescence intensity (a.u.)
34 | CCTTTCTGCTGTGAATTTTGTTGACGGCGGCGGCAACGACCGGAGTCACCTAGTGCAG | 9040 fluorescence intensity (a.u.)
35 | TTGTATTCCTACCTGAACTCTTCTTTTATTTTCTTTTGCTCGGAGTCACCTAGTGCAG | 9430 fluorescence intensity (a.u.)
36 | CCTCTTGCTATGTGCTGCTCTTCCTTGTTCTTCTTGCCTACGGAGTCACCTAGTGCAG | 10800 fluorescence intensity (a.u.)
37 | CACAACCAAGTTTTTATCTCATGCACTTCCACATCTTTTCCGGAGTCACCTAGTGCAG | 9500 fluorescence intensity (a.u.)
38 | GTGAGTTGTTTATTTTATTATCTTTTTTTAGTCAATTCCACGGAGTCACCTAGTGCAG | 13100 fluorescence intensity (a.u.)
39 | CATTATCTTTCTAGCCTGCTAACCATCACGTACACTTTCCCGGAGTCACCTAGTGCAG | 8760 fluorescence intensity (a.u.)
40 | AACTCATATGATCCACATGTCATTTTCTACCTTTTCTACTCGGAGTCACCTAGTGCAG | 10600 fluorescence intensity (a.u.)
41 | TTTCTTGGCTTTTTTGCGTGCTTCTGTGCTAGTAGTAGCACGGAGTCACCTAGTGCAG | 9120 fluorescence intensity (a.u.)
42 | AACTAGTTTTCCTTCTTGCACCAATTCCTCTTGTTTCTTTCGGAGTCACCTAGTGCAG | 10500 fluorescence intensity (a.u.)
